One may read the AC50 as the concentration at which the activity in the assay is half-maximal.

The values that follow come from PubChem BioAssay AID2685 (National Center for Advancing Translational Sciences (NCATS), 2010).

The assay in a line: qHTS Assay for Lipid Storage Modulators in Drosophila S3 Cells.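 As to cell number change: cells counted by Cell Tracker Red CMTPX staining in the red channel.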 The conditions noted are these: BODIPY lipid droplet fluorescence, 18-24 h; for cell number change: measured here: cell count max response, cells fed with added oleic acid. An outline of the steps: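 Drosophila S3 cells got compounds at several concentrations plus oleic acid (400 uM solution). Laser-scanning cytometry with 488 nm excitation read lipid droplets at 500-530 nm and cells at 575-640 nm. Percent activity was relative to 20 uM Triacsin C.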
Background: qHTS replaces the single test concentration by a dilution series.

Setting [1] is: measured here: cell number channel AC50, cells fed with added oleic acid.
The mark [2] stands for this setting: measured here: lipid fluorescence (Fed channel) AC50, cells fed with added oleic acid.

The list shows a part of the results. Shown are side measurements of this screen, not its main read-out; they come without a call. The list favours compounds with an active or inconclusive main result. Potencies come from curve fits of mixed quality, noted in brackets.

In the case of `COc1ccc(-c2nnc(SCc3nnc(-c4ccc(Cl)cc4)o3)n2-c2ccccc2)cc1`, the cell number change was -36%. Further, under setting [1], the AC50 is 7.31 µM [falling, partial curve]. Further, the AC50 under setting [2] was 2.31 µM [rising, partial curve]. On to `CCCc1cc(=O)[nH]c2nnc(SCC(=O)Nc3ccc(NC(C)=O)cc3)n12`, for which the cell number change was -24.8%. Besides, the AC50 under setting [2] was 10.3 µM [falling, partial curve, poor fit].

With `CC(C)OCCCn1c(=N)c(C(N)=S)cc2c(=O)n3ccccc3nc21`, the cell number change is -17.3%. Further, under setting [2], the AC50 is 4.11 µM [falling, full curve]. In the case of `O=C(c1cccc([N+](=O)[O-])c1)N1CCN(c2ccc(Cl)cc2)CC1`, the cell number change is 18.6%. In addition, the AC50 under setting [2] is 29.1 µM [rising, single point]. Take `CCOc1ccc(N(CC(=O)Nc2cc(Cl)ccc2C)S(C)(=O)=O)cc1`: the cell number change was -8.14%. The AC50 under setting [2] was 29.1 µM [falling, single point]. As for `COc1cc(NC(=O)COC(=O)/C=C/c2ccc(O)c(OC)c2)cc(OC)c1`, the cell number change was 67.6%. Further, under setting [1], the AC50 is 20.6 µM [rising, single point]. The half-maximal activity concentration (AC50) under setting [2] was 29.1 µM [rising, single point].

In the case of `O=C(Nc1ccccc1)C(Cl)C(=O)c1ccccc1` (centres undefined), the cell number change is -32.1%. Besides, the AC50 under setting [1] is 9.2 µM [falling, single point]. Also, the AC50 under setting [2] is 0.58 µM [falling, partial curve].

With `CC(Oc1ccc2ccccc2c1)C(=O)NNC(=S)NC(=O)c1ccco1` (centres undefined), the cell number change came to 16.6%. As to `Cc1c(C(=O)N2CC[C@@H](N3CCC(O)CC3)[C@H](O)C2)[nH]c2ccc(Cl)cc12`, the cell number change amounted to 13.7%. Also, under setting [2], the half-maximal activity concentration (AC50) was 25.9 µM [rising, single point]. Take `Cc1noc(C)c1S(=O)(=O)Nc1ccc(C(=O)N2CCN(c3cccc(Cl)c3)CC2)cc1`: the cell number change turned out to be 43.1%. Further, the AC50 under setting [1] is 14.6 µM [rising, partial curve]. With `O=c1c([N+](=O)[O-])c(N2CCCCC2)c2ccccc2n1-c1ccccc1`, the cell number change was -72.7%. Also, the AC50 under setting [1] was 20.6 µM [falling, partial curve]. In addition, the half-maximal activity concentration (AC50) under setting [2] was 20.6 µM [falling, partial curve].

For `CCN(CC)C(=O)CSC(Nc1ccc(F)cc1)=C(C#N)C#N`, the cell number change amounted to 17.5%. `CC(=O)OCC(=O)Nc1ccc(Cl)cc1Cl`: the cell number change was -23.8%. In addition, the AC50 under setting [1] is 0.82 µM [falling, full curve, poor fit]. The AC50 under setting [2] is 14.6 µM [falling, partial curve, poor fit]. In the case of `COCc1cc(C)n(CC(=O)Nc2cccc(C)c2)c(=O)c1C#N`, the cell number change stood at 38%. The AC50 under setting [1] was 0.231 µM [rising, full curve, poor fit]. Turning to `CCNc1nc(N2CCCCC2)nc(-n2nnc(C(=O)OCC)c2C)n1`, the AC50 by setting is: under setting [1], 4.11 µM [rising, partial curve]; under setting [2], 2.91 µM [rising, partial curve].

Regarding `O=C(Nc1ccc2c(c1)OCCO2)C1CCN(S(=O)(=O)c2cccc3nsnc23)CC1`, the cell number change was 7.76%. Besides, under setting [2], the AC50 is 0.259 µM [rising, full curve, poor fit]. Turning to `O=C(CSc1ccc(-c2ccccc2)nn1)N1CCCc2ccccc21`, the cell number change is 2.13%. The AC50 under setting [2] is 6.51 µM [rising, single point].

For the compound `COC(=O)c1ccc(/C=N/OCC(=O)NC2CCCC(C)C2C)cc1` (centres undefined), the cell number change is -9.97%.

For `CCOC(=O)Cn1cc(/C=N/N2C(=O)C3C4C=CC(C4)C3C2=O)c2ccccc21` (centres undefined), the cell number change came out at 39.8%. Moreover, the AC50 under setting [1] was 29.1 µM [rising, single point]. For `O=C1[C@@H]2Cc3c([nH]c4ccccc34)CN2C(=O)CN1CCCO`, the AC50 under setting [2] was 29.1 µM [rising, single point]. As to `CC1CCCCC1NC(=O)COC(=O)CCC(=O)c1cccs1` (centres undefined), the cell number change was found to be 4.84%. The AC50 under setting [2] was 6.51 µM [falling, single point]. For the compound `Cc1ccc(OCCCC(=O)N2CCN(S(=O)(=O)c3cccc(F)c3)CC2)cc1`, the cell number change is 6.79%. As for `O=C(CNc1cccc(S(=O)(=O)N2CCOCC2)c1)N1CCc2ccccc21`, the cell number change came to 0.854%. Further, the AC50 under setting [2] is 3.66 µM [falling, single point]. As to `O=C(CSc1nnc(NC(=O)c2c(F)cccc2F)s1)NC1CCCCC1`, under setting [2], the AC50 is 29.1 µM [rising, single point]. As to `COc1ccc(C(=O)CSc2nnc(-c3ccoc3C)n2CC2CCCO2)cc1` (centres undefined), the cell number change came out at 13.4%. In addition, the AC50 under setting [1] was 0.0103 µM [rising, full curve, poor fit]. The AC50 under setting [2] was 4.61 µM [rising, full curve, poor fit].

For `Cc1cccc(-n2nnnc2SCC(=O)N(CC(C)C)c2c(N)n(CC(C)C)c(=O)[nH]c2=O)c1`, the cell number change stood at 91.1%. The AC50 under setting [1] was 20.6 µM [rising, single point]. Take `CCOC(=O)c1cc(C#N)c(SCC(N)=O)[nH]c1=O`: the cell number change was -3.06%. The AC50 under setting [2] is 6.51 µM [falling, single point]. With `Cn1c2ccccc2c2nnc(SCCN3CCOCC3)nc21`, the cell number change came out at 1.39%. For the same compound, the AC50 under setting [2] is 20.6 µM [rising, partial curve]. In the case of `Cc1ccc(NC(=O)C2CCN(S(=O)(=O)c3c(C)noc3C)CC2)cc1C`, the cell number change is -77%. Further, under setting [1], the AC50 is 1.64 µM [falling, partial curve]. Further, the AC50 under setting [2] was 1.64 µM [falling, partial curve]. In the case of `COc1ccc(N(C(=O)Cc2cccs2)C(C(=O)NC2CCCCC2)c2cccn2C)cc1` (centres undefined), the cell number change came out at 6.41%. Besides, the AC50 under setting [1] is 0.103 µM [falling, full curve, poor fit]. Also, under setting [2], the AC50 was 0.58 µM [falling, full curve]. `COc1ccc2oc(=N)c(C(=O)Nc3ccc(Br)cc3)cc2c1`: the AC50 under setting [2] was 29.1 µM [rising, single point]. In the case of `CC1CCCN(C(=O)c2ccc(NS(=O)(=O)c3ccc4[nH]c(=O)[nH]c4c3)cc2)C1` (centres undefined), the cell number change is -1.17%. Consider `O=C(OCCN1C(=O)c2cccc3c(N4CCOCC4)ccc(c23)C1=O)c1cc(Cl)cc(Cl)c1`, for which the cell number change is -48%. Further, the AC50 under setting [1] is 29.1 µM [falling, single point]. Consider `C=CCn1c(N)cc(=O)nc1SCC(=O)N1CCN(c2ccc(F)cc2)CC1`, for which the cell number change was -24%. For the same compound, under setting [2], the AC50 is 29.1 µM [falling, single point]. As for `CC(=O)Nc1cc(NC(C)=O)c2nc(N)sc2c1`, the cell number change was -0.919%. The half-maximal activity concentration (AC50) under setting [2] is 5.8 µM [falling, single point]. For the compound `CCOc1ccc(Br)cc1S(=O)(=O)N1CC(C)OC(C)C1` (centres undefined), the cell number change is -1.16%. Also, under setting [2], the AC50 was 6.51 µM [falling, single point]. For `COc1cc(/C=N/NC(=O)c2cccc(NC(=O)c3ccccc3Cl)c2)ccc1O`, the cell number change was found to be 7.85%. Also, the AC50 under setting [2] was 0.517 µM [rising, full curve, poor fit]. For `Cc1coc2c1c(C)cc1oc(=O)c(CC(=O)N[C@H](C(=O)O)C(C)C)c(C)c12`, the cell number change is -2.84%. As to `Cc1ccc(S(=O)(=O)N(CCC#N)CCN2CCCC2)cc1`, the cell number change was -41.7%. Moreover, the AC50 under setting [1] is 6.51 µM [falling, full curve, poor fit]. Moreover, under setting [2], the concentration at half-maximal activity (AC50) was 1.3 µM [falling, full curve].

For `CCOC(=O)/C=c1\s/c(=C\c2ccc3cc(OC)ccc3c2)c(=O)n1CC(=O)NCC1CCCO1` (centres undefined), the cell number change was -11.1%. For the same compound, under setting [2], the AC50 was 6.51 µM [falling, single point].

Regarding `CNc1c(NS(=O)(=O)c2cc(Cl)ccc2OC)c(=O)oc2ccccc12`, the cell number change was found to be 2.25%. On to `CCN(CC(=O)Nc1ccc(NC(C)=O)cc1)C(=O)CSc1nnc(-c2ccco2)n1CC`, for which the cell number change is -44.4%. Moreover, the AC50 under setting [1] is 29.1 µM [falling, single point]. Consider `COc1ccc2cc(C(c3nnnn3CCc3ccccc3)N3CCCC(C)C3)c(=O)[nH]c2c1` (centres undefined), for which the cell number change was -9.56%. `O=C(NC1(O)C(=O)c2ccccc2C1=O)c1ccccc1`: the cell number change was -16.1%. For the same compound, the half-maximal activity concentration (AC50) under setting [1] was 0.461 µM [falling, full curve, poor fit]. Moreover, the AC50 under setting [2] was 0.731 µM [falling, full curve]. On to `C/C(=C\c1ccccc1)C(=O)Nc1cc(C)on1`, for which the AC50 runs as follows: under setting [1], 0.116 µM [falling, full curve, poor fit]; under setting [2], 0.13 µM [falling, full curve, poor fit]. Consider `Cc1c(N2CCCC2)cc2c(c1N)C(C)(C)CC2(C)C`, for which the cell number change was -38.3%. The AC50 under setting [1] is 29.1 µM [falling, single point]. Also, the AC50 under setting [2] is 32.6 µM [falling, single point]. Regarding `CCc1ccc(NC(=O)CCc2nc3cccnc3n2Cc2ccc(OC)cc2)cc1`, the cell number change was -50.4%. In addition, under setting [1], the AC50 was 29.1 µM [falling, single point]. The AC50 under setting [2] is 23.1 µM [falling, single point].

Regarding `COc1ccccc1CC(=O)Nc1sc2c(c1C(N)=O)CCCC2`, the cell number change worked out at 80%. Besides, under setting [2], the half-maximal activity concentration (AC50) was 0.58 µM [rising, partial curve]. With `Cc1cc(C(=O)CSc2nnc(-c3cccs3)n2Cc2ccccc2)c(C)n1C`, the cell number change is -21.6%. In addition, under setting [2], the AC50 was 0.092 µM [rising, full curve, poor fit]. In the case of `Cc1cc(C)n(C(=O)C(C(=O)c2ccccc2)C(C)C)n1` (centres undefined), the cell number change was 4.11%. Further, the AC50 under setting [2] was 6.51 µM [rising, single point]. Consider `CCOC(=O)CSc1nc2ccccc2n2c(C)nnc12`, for which the cell number change was found to be 17.7%. Same read-out and setting: the value for `O=C1C(=O)N(CC2CCCO2)C(c2ccco2)/C1=C(/O)c1ccc(F)cc1` (centres undefined) was 17.3%. With `COCCCn1c(SCC(=O)N2CCCC(C)C2)nnc1-c1ccco1` (centres undefined), the cell number change came out at 16.5%. Under setting [2], the AC50 was 29.1 µM [rising, single point]. `COc1ccc2cc3cc(C(=O)NC4CC4)sc3nc2c1`: the cell number change is -7.08%. Further, the AC50 under setting [2] is 1.03 µM [rising, partial curve]. Take `COc1cc(NC(=O)c2sc3nc(C)nc(N4CCOCC4)c3c2C)cc(OC)c1OC`: the cell number change worked out at 3.23%. For the same compound, the concentration at half-maximal activity (AC50) under setting [2] is 29.1 µM [rising, single point]. Take `CCOC(=O)c1cnc2c(Cl)cccc2c1NCCCN1CCOCC1`: the AC50 under setting [2] was 29.1 µM [rising, single point]. For `Cc1ccc(C(=O)N2C(=O)C(c3ccccc3)Oc3ccccc32)cc1` (centres undefined), the cell number change stood at 0.32%. Under setting [1], the AC50 is 0.58 µM [falling, single point]. Consider `COc1ccc(C)cc1NC(=O)C(c1ccccc1)N1CCN(CC(=O)NC2CC2)CC1` (centres undefined), for which the cell number change turned out to be 132%. Under setting [1], the AC50 is 18.4 µM [rising, partial curve].
